Among the data in publication PMC8275761 are binding values, retold here.

Sequences of proteins named here, by UniProt entry; tags and fusion partners are left off. A change or cut given only in a name is not applied to a line headed by its entry.
UniProt Q6NVH7: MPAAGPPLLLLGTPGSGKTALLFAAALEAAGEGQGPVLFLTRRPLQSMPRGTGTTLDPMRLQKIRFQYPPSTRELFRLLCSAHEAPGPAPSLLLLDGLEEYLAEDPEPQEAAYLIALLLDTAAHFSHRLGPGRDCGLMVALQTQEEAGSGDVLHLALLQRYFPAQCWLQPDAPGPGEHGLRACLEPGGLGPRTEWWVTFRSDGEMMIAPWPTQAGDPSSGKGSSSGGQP
UniProt Q06609: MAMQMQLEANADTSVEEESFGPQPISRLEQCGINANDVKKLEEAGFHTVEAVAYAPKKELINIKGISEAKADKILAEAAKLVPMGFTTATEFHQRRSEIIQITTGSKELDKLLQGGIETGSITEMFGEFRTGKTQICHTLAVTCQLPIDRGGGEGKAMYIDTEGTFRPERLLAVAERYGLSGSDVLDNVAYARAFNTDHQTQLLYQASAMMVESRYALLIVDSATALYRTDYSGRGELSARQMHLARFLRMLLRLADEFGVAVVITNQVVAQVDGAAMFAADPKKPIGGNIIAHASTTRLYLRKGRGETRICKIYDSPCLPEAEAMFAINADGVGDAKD

For assay [1], the target named is MBP-SWSAP1-His (human short) (human) (UniProt Q6NVH7). The experiment in a line: pull-down; RAD51 and MBP-SWSAP1 each at 0.4 µM in buffer B (100 mM KCl, 40 mM Tris pH 7.5, 0.05% Triton X-100, 100 µg/mL acetylated BSA), 20 min at 37 °C; anti-MBP magnetic beads 1 h at 37°C; SDS–PAGE with Coomassie blue or silver staining; both purified.
For assay [2], the target named is pGBD-SWSAP1 short isoform (human) (UniProt Q6NVH7). Kind of assay: two-hybrid; S. cerevisiae PJ69-4A; pGAD-SWS1 with pGBD-SWSAP1 short or long; spotted on SC-LEU-TRP-HIS, SC-LEU-TRP-HIS + 3AT or SC-LEU-TRP-ADE, 2 days at 30°C.

Results are given in words; binding and its absence hold for the method and conditions named. A result given as binding can be weak or reduced; the word gives no strength.

Turning to “Untagged human RAD51 (from UniProt Q06609 1-339)”, in assay [1], the binding entry is recorded as “binds”.

B1: pGAD-SWS1 (protein, UniProt Q19AV6 1-140)
chain: MAVVLPAVVEELLSEMAAAVQESARIPDEYLLSLKFLFGSSATQALDLVDRQSITLISSPSGRRVYQVLGSSSKTYTCLASCHYCSCPAFAFSVLRKSDSILCKHLLAVYLSQVMRTCQQLSVSDKQLTDILLMEKKQEA
As to B1, the binding entry in assay [2] is given as “binds”.
